The values below come from the supplement of paper PMC12595434, “Development of retinoid nuclear receptor pathway antagonists through targeting aldehyde dehydrogenase 1A3” (iScience, 2025).

By UniProt entry, the sequences of proteins in these tests, tags left out. Where a name states a change or a piece, a line headed by the entry shows the natural chain unless it says otherwise.
UniProt Q8N1B4: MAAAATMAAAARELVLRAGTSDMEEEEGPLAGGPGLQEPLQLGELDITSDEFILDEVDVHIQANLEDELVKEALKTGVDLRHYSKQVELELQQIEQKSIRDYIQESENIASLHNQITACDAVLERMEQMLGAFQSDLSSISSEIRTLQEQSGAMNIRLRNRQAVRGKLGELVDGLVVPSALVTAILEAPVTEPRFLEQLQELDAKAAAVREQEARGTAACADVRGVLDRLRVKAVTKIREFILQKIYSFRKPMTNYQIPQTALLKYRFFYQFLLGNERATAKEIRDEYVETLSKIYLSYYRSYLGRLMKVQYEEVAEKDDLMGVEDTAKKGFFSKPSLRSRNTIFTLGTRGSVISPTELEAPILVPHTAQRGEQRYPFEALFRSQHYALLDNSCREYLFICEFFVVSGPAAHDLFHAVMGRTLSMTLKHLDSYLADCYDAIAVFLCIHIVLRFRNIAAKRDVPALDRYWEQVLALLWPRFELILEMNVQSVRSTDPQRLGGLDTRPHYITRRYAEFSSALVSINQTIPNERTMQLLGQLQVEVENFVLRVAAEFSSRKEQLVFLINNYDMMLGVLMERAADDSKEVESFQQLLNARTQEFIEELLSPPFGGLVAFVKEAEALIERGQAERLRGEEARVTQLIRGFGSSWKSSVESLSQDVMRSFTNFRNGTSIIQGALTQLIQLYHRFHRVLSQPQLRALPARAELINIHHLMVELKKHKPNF
UniProt Q8N4P3, whole entry: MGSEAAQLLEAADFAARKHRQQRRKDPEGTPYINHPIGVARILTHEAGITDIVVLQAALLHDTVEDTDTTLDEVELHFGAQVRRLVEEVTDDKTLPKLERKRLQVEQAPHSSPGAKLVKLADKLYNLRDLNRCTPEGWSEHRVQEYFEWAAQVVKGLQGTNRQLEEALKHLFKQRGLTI
UniProt Q8N543: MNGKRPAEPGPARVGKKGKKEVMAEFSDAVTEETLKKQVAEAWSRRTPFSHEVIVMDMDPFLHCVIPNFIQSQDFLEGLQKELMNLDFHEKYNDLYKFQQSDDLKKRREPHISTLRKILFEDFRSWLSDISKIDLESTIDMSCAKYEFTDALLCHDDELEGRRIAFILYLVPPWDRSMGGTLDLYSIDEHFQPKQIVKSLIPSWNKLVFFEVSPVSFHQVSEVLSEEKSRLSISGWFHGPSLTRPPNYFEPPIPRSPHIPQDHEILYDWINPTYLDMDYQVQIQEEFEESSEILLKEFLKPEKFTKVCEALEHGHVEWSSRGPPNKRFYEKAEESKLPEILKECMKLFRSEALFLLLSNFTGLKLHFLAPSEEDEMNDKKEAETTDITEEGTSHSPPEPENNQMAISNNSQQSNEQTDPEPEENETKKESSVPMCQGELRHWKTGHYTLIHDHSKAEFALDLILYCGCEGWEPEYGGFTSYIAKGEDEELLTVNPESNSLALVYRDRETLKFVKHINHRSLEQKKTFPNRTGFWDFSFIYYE
UniProt Q8IWT0: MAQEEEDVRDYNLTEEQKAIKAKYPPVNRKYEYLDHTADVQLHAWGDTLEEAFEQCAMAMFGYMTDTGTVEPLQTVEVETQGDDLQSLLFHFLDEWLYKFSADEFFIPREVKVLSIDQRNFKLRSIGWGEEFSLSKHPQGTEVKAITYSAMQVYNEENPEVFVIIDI
UniProt Q8IY63: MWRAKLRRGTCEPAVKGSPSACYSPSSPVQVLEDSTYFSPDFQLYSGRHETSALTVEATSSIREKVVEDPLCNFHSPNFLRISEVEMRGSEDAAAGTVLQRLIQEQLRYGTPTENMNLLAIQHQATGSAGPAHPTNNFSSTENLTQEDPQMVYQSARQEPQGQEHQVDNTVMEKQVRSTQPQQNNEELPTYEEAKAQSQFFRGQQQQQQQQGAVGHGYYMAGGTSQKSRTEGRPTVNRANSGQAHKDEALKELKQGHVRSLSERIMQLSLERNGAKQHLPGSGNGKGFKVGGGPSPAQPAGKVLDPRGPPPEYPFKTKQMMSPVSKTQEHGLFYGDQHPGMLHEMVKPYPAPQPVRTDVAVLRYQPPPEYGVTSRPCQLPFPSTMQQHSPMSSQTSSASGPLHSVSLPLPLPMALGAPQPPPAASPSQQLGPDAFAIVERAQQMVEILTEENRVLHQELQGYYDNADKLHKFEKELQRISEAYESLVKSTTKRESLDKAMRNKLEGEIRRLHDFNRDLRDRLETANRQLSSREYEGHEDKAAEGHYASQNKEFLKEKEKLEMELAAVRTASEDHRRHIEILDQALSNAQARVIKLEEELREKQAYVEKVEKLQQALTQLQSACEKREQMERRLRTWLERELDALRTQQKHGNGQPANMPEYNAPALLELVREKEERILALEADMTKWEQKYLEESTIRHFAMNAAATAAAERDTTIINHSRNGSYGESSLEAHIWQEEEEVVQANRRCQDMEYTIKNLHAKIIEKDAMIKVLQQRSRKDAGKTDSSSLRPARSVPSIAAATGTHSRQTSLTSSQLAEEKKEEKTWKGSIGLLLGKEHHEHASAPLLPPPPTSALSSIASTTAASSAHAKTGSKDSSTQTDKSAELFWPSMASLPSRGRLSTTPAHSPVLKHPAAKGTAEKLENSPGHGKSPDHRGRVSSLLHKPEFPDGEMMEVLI
UniProt Q86YA3: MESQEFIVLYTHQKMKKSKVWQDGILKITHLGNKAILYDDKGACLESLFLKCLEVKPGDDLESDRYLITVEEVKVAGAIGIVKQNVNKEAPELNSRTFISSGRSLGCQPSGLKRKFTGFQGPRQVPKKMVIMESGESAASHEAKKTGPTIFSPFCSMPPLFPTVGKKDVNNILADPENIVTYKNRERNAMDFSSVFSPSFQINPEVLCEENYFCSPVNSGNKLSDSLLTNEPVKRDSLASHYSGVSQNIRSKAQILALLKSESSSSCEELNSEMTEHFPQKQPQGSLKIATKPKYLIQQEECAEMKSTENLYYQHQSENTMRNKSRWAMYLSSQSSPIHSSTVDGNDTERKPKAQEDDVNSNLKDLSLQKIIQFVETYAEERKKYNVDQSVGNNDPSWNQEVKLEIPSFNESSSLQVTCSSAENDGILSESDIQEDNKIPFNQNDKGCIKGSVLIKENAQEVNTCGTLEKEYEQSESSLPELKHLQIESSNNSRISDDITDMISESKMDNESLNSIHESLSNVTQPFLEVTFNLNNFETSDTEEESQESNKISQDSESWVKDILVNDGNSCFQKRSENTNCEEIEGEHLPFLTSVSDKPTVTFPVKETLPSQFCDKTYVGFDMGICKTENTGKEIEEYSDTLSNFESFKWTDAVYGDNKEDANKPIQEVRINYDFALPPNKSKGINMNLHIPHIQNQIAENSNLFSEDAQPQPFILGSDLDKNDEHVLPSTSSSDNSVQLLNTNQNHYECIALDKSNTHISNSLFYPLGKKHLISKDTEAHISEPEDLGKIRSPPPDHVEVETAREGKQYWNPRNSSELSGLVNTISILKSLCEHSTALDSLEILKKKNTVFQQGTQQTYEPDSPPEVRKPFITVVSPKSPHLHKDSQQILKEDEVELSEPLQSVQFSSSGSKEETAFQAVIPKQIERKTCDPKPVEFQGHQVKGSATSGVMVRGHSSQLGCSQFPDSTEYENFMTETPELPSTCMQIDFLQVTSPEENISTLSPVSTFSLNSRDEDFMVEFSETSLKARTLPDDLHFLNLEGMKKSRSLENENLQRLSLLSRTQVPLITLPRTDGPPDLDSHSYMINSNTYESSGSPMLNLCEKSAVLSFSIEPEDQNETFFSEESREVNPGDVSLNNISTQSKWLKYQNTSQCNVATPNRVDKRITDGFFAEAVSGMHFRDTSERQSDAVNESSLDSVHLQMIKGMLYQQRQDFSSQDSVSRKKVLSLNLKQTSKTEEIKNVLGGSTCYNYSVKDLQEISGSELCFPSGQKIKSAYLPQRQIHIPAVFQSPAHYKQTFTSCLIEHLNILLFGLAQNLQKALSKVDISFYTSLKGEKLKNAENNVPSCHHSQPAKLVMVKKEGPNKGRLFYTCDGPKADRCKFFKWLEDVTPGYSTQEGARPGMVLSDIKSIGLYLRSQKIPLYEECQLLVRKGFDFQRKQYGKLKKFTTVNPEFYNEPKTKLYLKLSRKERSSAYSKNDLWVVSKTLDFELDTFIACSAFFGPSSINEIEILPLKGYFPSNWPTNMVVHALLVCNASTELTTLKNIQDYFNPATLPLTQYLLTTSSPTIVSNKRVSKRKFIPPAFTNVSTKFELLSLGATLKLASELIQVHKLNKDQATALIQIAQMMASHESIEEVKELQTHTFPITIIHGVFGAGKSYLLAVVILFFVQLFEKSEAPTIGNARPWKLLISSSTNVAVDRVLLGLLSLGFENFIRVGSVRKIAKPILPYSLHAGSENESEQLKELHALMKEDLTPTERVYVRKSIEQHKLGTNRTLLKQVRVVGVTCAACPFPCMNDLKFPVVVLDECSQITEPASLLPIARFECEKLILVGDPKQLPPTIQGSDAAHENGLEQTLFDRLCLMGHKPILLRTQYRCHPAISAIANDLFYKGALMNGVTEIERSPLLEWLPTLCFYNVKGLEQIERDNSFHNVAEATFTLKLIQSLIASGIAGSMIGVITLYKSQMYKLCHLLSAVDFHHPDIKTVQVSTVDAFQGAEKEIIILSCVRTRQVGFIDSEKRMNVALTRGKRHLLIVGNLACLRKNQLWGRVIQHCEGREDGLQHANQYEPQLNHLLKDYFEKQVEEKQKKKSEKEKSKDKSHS
UniProt Q86VW0: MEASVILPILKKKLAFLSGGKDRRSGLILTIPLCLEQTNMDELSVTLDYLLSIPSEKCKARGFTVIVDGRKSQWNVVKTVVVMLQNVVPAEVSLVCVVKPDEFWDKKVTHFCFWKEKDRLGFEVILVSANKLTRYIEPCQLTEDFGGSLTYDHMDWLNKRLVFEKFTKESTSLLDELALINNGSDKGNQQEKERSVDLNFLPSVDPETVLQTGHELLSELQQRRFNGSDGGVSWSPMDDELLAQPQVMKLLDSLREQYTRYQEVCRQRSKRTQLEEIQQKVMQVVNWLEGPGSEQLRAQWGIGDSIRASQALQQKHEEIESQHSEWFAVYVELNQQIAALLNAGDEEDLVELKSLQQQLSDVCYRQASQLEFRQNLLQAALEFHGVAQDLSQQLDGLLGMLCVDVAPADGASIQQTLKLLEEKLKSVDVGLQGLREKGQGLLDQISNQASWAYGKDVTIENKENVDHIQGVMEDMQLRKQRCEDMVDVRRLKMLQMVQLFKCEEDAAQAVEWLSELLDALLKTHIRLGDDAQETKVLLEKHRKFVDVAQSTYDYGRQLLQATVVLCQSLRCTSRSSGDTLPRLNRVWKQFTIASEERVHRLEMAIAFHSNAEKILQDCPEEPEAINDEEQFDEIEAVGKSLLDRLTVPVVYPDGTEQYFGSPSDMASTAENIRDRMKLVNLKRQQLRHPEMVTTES
UniProt Q8IU81: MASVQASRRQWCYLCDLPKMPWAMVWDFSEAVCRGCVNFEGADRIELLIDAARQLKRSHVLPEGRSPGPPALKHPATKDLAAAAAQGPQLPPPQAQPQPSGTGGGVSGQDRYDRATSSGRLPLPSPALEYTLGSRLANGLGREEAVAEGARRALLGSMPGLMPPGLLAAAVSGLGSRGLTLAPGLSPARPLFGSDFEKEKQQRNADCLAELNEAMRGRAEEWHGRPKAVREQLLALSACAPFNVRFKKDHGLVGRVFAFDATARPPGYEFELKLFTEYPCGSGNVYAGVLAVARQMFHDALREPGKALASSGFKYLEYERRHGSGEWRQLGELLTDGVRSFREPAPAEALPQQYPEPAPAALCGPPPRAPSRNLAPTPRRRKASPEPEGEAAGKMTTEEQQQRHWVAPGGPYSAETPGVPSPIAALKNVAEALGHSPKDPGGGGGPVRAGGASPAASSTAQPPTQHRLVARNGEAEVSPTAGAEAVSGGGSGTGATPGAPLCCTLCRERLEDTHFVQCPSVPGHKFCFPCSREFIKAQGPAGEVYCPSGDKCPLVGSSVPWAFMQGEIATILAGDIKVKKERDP
UniProt Q86Y46: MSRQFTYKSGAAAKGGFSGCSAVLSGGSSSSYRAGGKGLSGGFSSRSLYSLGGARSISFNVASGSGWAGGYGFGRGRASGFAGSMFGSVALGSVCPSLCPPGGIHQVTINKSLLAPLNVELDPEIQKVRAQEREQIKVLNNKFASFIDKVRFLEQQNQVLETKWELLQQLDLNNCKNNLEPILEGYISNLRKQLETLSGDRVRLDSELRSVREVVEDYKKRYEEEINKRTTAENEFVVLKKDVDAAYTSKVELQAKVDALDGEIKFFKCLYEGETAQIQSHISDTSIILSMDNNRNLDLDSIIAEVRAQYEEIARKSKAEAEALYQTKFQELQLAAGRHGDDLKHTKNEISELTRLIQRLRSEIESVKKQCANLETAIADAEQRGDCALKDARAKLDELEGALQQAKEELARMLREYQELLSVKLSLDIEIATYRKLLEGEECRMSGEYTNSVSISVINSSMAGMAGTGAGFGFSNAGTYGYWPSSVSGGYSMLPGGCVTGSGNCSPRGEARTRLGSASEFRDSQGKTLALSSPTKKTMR

This is one part of the list. This is a noisy data set.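 Many melting curves are irregular; where none melted, Tm was taken as 64 °C.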

Compound in the first assay: CCc1cnccc1C(=O)Nc1cc2c(cc1F)NC(=O)CC2
Nature of the assay: melting temperature shift (DMSO Tm minus MBE1-treated Tm) in cellular thermal proteome profiling; higher = less thermal stabilization by MBE1 (negative = stabilized by MBE1). The settings on record: A375; MBE1 concentration: 100 nM.
As to VPS52 (UniProt Q8N1B4), the melting temperature shift is -0.856 °C.
For the target HDDC3 (UniProt Q8N4P3), the melting temperature shift is -1.5 °C.
As for CDAN1 (UniProt Q8IWY9), the melting temperature shift is 0.647 °C.
Same read-out and setting: in the case of UniProt Q8N4B1 it was -0.0604 °C; in that of OGFOD1 (UniProt Q8N543), -2.44 °C; in that of UniProt Q86X53, -1.35 °C.
On to UniProt Q8N567, for which the melting temperature shift was -2.08 °C.
SUPV3L1 (UniProt Q8IYB8): the melting temperature shift is -0.0427 °C.
In the case of UniProt Q8N2Q7, the melting temperature shift worked out at 2.25 °C.
The same measure, in the same setting: in the case of CCDC117 (UniProt Q8IWD4) it was -3.74 °C.
As for ZBTB8OS (UniProt Q8IWT0), the melting temperature shift was 0.0977 °C.
In the case of UniProt Q8IY63, the melting temperature shift is -1.09 °C.
GPBP1 (UniProt Q86WP2): the melting temperature shift amounted to 0 °C.
With UniProt Q8IZU2, the melting temperature shift stood at 0.0335 °C.
In the case of KIAA2013 (UniProt Q8IYS2), the melting temperature shift was -3.52 °C.
In the case of ERC1 (UniProt Q8IUD2), the melting temperature shift was -1.39 °C.
Regarding UniProt Q8N371, the melting temperature shift was -1.01 °C.
On to UniProt Q86YA3, for which the melting temperature shift was -0.75 °C.
On the same count and under the same terms, in the case of SESTD1 (UniProt Q86VW0) it was -1.63 °C; in that of IRF2BP1 (UniProt Q8IU81), 0.468 °C; in that of TMEM173 (UniProt Q86WV6), 0.134 °C.
In the case of UniProt Q8N0Z8, the melting temperature shift is -1.9 °C.
UniProt Q86YW9: the melting temperature shift turned out to be 1.59 °C.
For UniProt Q8N2F6, the melting temperature shift was 0.968 °C.

The same assay, now with this note: A375; MBE1 concentration: 1 uM.
Take UniProt Q8IYU2: the melting temperature shift is -1.58 °C.
As for NDUFA11 (UniProt Q86Y39), the melting temperature shift was 0.862 °C.
In the case of VPS52 (UniProt Q8N1B4), the melting temperature shift is -0.889 °C.
Turning to HDDC3 (UniProt Q8N4P3), the melting temperature shift was -0.871 °C.
Regarding CDAN1 (UniProt Q8IWY9), the melting temperature shift came to 0.598 °C.
For the target UniProt Q8IXJ9, the melting temperature shift is 2.23 °C.
On to OGFOD1 (UniProt Q8N543), for which the melting temperature shift was 0.0582 °C.
On the same count and under the same terms, under UniProt Q8N567 stands 0.495 °C.
For PHACTR4 (UniProt Q8IZ21), the melting temperature shift was -2.04 °C.
Same read-out and setting: under WWC1 (UniProt Q8IX03) stands -1.53 °C; under RTTN (UniProt Q86VV8), 3.03 °C.
For the target UniProt Q86Y46, the melting temperature shift is -1.85 °C.
On to GPALPP1 (UniProt Q8IXQ4), for which the melting temperature shift was -2.82 °C.
Take SUPV3L1 (UniProt Q8IYB8): the melting temperature shift is 0.22 °C.
With CCDC117 (UniProt Q8IWD4), the melting temperature shift was -1.95 °C.
For UniProt Q8N2Z9, the melting temperature shift turned out to be 0.275 °C.
With RHPN2 (UniProt Q8IUC4), the melting temperature shift was -1.95 °C.
Turning to ZBTB8OS (UniProt Q8IWT0), the melting temperature shift turned out to be 0.745 °C.
Regarding UniProt Q8IY63, the melting temperature shift is -0.339 °C.
The same measure, in the same setting: under GPBP1 (UniProt Q86WP2) stands -5.03 °C; under UniProt Q8IUW5, 1.77 °C; under KIAA2013 (UniProt Q8IYS2), -3.76 °C.
For the target ERC1 (UniProt Q8IUD2), the melting temperature shift was -0.409 °C.
In the case of UniProt Q8N8E3, the melting temperature shift is -2.66 °C.
For the target UniProt Q8IZD4, the melting temperature shift amounted to 2.21 °C.
In the case of IRF2BP1 (UniProt Q8IU81), the melting temperature shift is -0.135 °C.
For TMEM173 (UniProt Q86WV6), the melting temperature shift is 0.153 °C.
As to UniProt Q8N2F6, the melting temperature shift is -0.195 °C.
